Record: PubChem BioAssay AID686938 (Drosophila RNAi Screening Center, 2013)
The screen tested about 23,000 reagents; this is a random part of those with a known target gene and a result. In the full data, 75 (0.33%) got an active call. 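Raw plate signals without normalisation; calls rest on plate z-scores that were not deposited; ratio present for only 364 wells.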 Reagents against one gene are numbered here. The record does not give: the dose of the treatment.

Assay: 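Looking for CRAC channel components and the factors controlling them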 (primary screen)
System: Drosophila S2R+ cells
Reagents: long dsRNA against Drosophila genes, about 0.25 µg dsRNA per well, roughly 10,000 cells
Timing: 5 days of knock-down before the calcium assay
Challenge: thapsigargin (SERCA pump blocker) to empty calcium stores; entry signal taken 4 min after adding it
Measured: 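Duplicate raw fluo-4 intensities per well from a plate reader, at rest and four minutes after thapsigargin emptied calcium stores; entry-to-rest ratio filled for only some wells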
Scale: calcium entry signal: higher = stronger calcium signal after store depletion; entry to resting ratio: higher = more calcium entry relative to resting level; resting calcium signal: higher = higher resting calcium signal
Hit rule: 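Called when the plate z-score of the entry-to-rest ratio, mean of duplicates, falls below −3; wells with low overall dye signal (Fmax z below −2) or more than five off-targets excluded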
Meaning of the calls: active = strongly reduced calcium entry; inactive = no strong reduction

calcium entry signal, replicate 1 (fluorescence units) | calcium entry signal, replicate 2 (fluorescence units) | entry to resting ratio | resting calcium signal, replicate 1 (fluorescence units) | resting calcium signal, replicate 2 (fluorescence units) | activity call | Gene | reagent no.
3.82e7 | 4.72e7 | – | 1.79e7 | 3.26e7 | inactive | CG7133 (GeneID 40449) | 1
3.28e7 | 3.77e7 | – | 1.70e7 | 1.81e7 | inactive | Cpr49Ad (GeneID 36349) | 1
3.72e7 | – | – | 2.36e7 | – | inactive | glu (GeneID 35001) | 1
3.12e7 | 4.26e7 | – | 1.68e7 | 2.06e7 | inactive | Cyp317a1 (GeneID 36667) | 1
3.88e7 | 4.48e7 | – | 1.72e7 | 2.14e7 | inactive | CG46339 (GeneID 44359) | 1
3.19e7 | 5.13e7 | 2.1 | 1.53e7 | 1.91e7 | inactive | CG3708 (GeneID 31039) | 1
3.04e7 | 3.47e7 | – | 1.42e7 | 1.52e7 | inactive | nonC (GeneID 31625) | 1
2.72e7 | 4.22e7 | – | 1.34e7 | 1.77e7 | inactive | nonC (GeneID 31625) | 2
2.50e7 | 3.63e7 | – | 1.33e7 | 1.65e7 | inactive | CG31913 (GeneID 319023) | 1
3.60e7 | 4.42e7 | – | 1.96e7 | 2.00e7 | inactive | CG30269 (GeneID 37600) | 1
3.52e7 | 4.34e7 | – | 1.56e7 | 1.96e7 | inactive | Tsp29Fb (GeneID 34212) | 1
3.42e7 | 3.07e7 | – | 1.52e7 | 1.28e7 | inactive | Dd (GeneID 33107) | 1
3.85e7 | 4.08e7 | – | 1.78e7 | 2.05e7 | inactive | CG4239 (GeneID 32606) | 1
3.36e7 | 4.46e7 | – | 1.51e7 | 1.78e7 | inactive | babos (GeneID 37557) | 1
3.66e7 | – | – | 1.85e7 | – | inactive | babos (GeneID 37557) | 2
4.18e7 | 3.67e7 | – | 2.08e7 | 1.87e7 | inactive | CG12948 (GeneID 41187) | 1
5.37e7 | 3.43e7 | – | 2.43e7 | 1.67e7 | inactive | CG15483 (GeneID 34687) | 1
2.98e7 | 3.85e7 | – | 1.64e7 | 1.73e7 | inactive | Buffy (GeneID 36251) | 1
4.29e7 | 5.85e7 | – | 2.11e7 | 2.39e7 | inactive | CG3744 (GeneID 42972) | 1
3.74e7 | 8.82e7 | – | 1.68e7 | 3.14e7 | inactive | mah (GeneID 42988) | 1
4.32e7 | 3.60e7 | – | 1.92e7 | 1.69e7 | inactive | atl (GeneID 42934) | 1
2.34e7 | 3.01e7 | – | 1.26e7 | 1.57e7 | inactive | Sec16 (GeneID 32209) | 1
3.06e7 | 4.09e7 | – | 1.47e7 | 1.95e7 | inactive | Sec16 (GeneID 32209) | 2
3.79e7 | 4.27e7 | – | 1.65e7 | 2.00e7 | inactive | Dredd (GeneID 31011) | 1
2.26e7 | 2.24e7 | – | 1.22e7 | 1.25e7 | inactive | CG14739 (GeneID 41467) | 1
3.73e7 | 4.30e7 | – | 1.85e7 | 1.98e7 | inactive | Septin2 (GeneID 42438) | 1
4.30e7 | 3.99e7 | – | 1.90e7 | 1.84e7 | inactive | Gnptab (GeneID 35943) | 1
5.49e7 | 5.68e7 | – | 2.39e7 | 2.57e7 | inactive | Or94a (GeneID 42711) | 1
3.80e7 | – | – | 1.68e7 | – | inactive | sau (GeneID 33402) | 1
2.79e7 | 2.75e7 | – | 1.40e7 | 1.31e7 | inactive | CG13950 (GeneID 33267) | 1
3.89e7 | 3.33e7 | – | 2.01e7 | 1.64e7 | inactive | axo (GeneID 43923) | 1
2.56e7 | 3.90e7 | – | 1.31e7 | 1.90e7 | inactive | axo (GeneID 43923) | 2
2.84e7 | 4.41e7 | – | 1.45e7 | 2.01e7 | inactive | axo (GeneID 43923) | 3
3.01e7 | 3.38e7 | – | 1.48e7 | 1.48e7 | inactive | axo (GeneID 43923) | 4
3.38e7 | 3.12e7 | – | 1.37e7 | 1.36e7 | inactive | axo (GeneID 43923) | 5
3.21e7 | 3.04e7 | – | 1.55e7 | 1.48e7 | inactive | CARPA (GeneID 31687) | 1
2.89e7 | 4.03e7 | – | 1.56e7 | 1.81e7 | inactive | CARPA (GeneID 31687) | 2
5.57e7 | 4.88e7 | 2.1 | 2.70e7 | 2.06e7 | inactive | CG14787 (GeneID 31096) | 1
4.86e7 | 4.02e7 | – | 2.24e7 | 1.74e7 | inactive | CG7453 (GeneID 32903) | 1
4.07e7 | 3.25e7 | – | 2.17e7 | 1.53e7 | inactive | CG34238 (GeneID 5740238) | 1
